In the supplement of paper PMC10849652:
Some of the results follow.

Protein sequences, listed by entry. Tags and fused reporters are not part of them. Lines headed by an entry give the natural chain unless they say otherwise; changes in a name come on top.
UniProt Q9BUR4: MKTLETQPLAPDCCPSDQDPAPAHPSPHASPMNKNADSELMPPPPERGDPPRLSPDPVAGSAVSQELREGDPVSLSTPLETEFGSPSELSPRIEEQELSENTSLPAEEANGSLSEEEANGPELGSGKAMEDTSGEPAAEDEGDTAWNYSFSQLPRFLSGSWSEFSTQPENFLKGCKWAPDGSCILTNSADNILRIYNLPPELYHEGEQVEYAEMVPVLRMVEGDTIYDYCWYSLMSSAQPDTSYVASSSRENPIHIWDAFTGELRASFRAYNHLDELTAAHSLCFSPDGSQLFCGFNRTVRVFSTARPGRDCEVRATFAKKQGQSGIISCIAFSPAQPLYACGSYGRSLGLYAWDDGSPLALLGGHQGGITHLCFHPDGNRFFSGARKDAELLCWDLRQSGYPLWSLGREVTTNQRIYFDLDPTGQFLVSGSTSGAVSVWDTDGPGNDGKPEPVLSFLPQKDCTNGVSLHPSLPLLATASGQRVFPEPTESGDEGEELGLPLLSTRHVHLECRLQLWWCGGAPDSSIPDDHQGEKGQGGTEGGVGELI
UniProt P23381: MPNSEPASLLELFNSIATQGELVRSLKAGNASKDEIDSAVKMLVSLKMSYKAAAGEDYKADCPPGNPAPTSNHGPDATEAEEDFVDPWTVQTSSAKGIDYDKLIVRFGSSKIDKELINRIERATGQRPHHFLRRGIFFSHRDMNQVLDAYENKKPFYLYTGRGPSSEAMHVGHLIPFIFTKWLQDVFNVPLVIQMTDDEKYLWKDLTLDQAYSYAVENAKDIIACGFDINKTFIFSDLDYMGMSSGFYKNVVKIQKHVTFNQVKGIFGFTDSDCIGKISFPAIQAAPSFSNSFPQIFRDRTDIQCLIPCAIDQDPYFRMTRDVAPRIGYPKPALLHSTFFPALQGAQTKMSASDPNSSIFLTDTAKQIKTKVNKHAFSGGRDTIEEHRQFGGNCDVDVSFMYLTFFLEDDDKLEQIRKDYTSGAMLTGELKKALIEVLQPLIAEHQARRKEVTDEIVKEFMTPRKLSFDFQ
UniProt Q969T9: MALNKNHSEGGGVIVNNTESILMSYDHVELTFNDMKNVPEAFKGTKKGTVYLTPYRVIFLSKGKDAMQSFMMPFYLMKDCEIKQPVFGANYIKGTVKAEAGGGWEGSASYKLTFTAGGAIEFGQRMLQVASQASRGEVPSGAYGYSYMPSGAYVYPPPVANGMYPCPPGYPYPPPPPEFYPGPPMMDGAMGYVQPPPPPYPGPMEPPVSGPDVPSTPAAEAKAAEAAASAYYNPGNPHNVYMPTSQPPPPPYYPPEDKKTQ
UniProt Q7Z7G8: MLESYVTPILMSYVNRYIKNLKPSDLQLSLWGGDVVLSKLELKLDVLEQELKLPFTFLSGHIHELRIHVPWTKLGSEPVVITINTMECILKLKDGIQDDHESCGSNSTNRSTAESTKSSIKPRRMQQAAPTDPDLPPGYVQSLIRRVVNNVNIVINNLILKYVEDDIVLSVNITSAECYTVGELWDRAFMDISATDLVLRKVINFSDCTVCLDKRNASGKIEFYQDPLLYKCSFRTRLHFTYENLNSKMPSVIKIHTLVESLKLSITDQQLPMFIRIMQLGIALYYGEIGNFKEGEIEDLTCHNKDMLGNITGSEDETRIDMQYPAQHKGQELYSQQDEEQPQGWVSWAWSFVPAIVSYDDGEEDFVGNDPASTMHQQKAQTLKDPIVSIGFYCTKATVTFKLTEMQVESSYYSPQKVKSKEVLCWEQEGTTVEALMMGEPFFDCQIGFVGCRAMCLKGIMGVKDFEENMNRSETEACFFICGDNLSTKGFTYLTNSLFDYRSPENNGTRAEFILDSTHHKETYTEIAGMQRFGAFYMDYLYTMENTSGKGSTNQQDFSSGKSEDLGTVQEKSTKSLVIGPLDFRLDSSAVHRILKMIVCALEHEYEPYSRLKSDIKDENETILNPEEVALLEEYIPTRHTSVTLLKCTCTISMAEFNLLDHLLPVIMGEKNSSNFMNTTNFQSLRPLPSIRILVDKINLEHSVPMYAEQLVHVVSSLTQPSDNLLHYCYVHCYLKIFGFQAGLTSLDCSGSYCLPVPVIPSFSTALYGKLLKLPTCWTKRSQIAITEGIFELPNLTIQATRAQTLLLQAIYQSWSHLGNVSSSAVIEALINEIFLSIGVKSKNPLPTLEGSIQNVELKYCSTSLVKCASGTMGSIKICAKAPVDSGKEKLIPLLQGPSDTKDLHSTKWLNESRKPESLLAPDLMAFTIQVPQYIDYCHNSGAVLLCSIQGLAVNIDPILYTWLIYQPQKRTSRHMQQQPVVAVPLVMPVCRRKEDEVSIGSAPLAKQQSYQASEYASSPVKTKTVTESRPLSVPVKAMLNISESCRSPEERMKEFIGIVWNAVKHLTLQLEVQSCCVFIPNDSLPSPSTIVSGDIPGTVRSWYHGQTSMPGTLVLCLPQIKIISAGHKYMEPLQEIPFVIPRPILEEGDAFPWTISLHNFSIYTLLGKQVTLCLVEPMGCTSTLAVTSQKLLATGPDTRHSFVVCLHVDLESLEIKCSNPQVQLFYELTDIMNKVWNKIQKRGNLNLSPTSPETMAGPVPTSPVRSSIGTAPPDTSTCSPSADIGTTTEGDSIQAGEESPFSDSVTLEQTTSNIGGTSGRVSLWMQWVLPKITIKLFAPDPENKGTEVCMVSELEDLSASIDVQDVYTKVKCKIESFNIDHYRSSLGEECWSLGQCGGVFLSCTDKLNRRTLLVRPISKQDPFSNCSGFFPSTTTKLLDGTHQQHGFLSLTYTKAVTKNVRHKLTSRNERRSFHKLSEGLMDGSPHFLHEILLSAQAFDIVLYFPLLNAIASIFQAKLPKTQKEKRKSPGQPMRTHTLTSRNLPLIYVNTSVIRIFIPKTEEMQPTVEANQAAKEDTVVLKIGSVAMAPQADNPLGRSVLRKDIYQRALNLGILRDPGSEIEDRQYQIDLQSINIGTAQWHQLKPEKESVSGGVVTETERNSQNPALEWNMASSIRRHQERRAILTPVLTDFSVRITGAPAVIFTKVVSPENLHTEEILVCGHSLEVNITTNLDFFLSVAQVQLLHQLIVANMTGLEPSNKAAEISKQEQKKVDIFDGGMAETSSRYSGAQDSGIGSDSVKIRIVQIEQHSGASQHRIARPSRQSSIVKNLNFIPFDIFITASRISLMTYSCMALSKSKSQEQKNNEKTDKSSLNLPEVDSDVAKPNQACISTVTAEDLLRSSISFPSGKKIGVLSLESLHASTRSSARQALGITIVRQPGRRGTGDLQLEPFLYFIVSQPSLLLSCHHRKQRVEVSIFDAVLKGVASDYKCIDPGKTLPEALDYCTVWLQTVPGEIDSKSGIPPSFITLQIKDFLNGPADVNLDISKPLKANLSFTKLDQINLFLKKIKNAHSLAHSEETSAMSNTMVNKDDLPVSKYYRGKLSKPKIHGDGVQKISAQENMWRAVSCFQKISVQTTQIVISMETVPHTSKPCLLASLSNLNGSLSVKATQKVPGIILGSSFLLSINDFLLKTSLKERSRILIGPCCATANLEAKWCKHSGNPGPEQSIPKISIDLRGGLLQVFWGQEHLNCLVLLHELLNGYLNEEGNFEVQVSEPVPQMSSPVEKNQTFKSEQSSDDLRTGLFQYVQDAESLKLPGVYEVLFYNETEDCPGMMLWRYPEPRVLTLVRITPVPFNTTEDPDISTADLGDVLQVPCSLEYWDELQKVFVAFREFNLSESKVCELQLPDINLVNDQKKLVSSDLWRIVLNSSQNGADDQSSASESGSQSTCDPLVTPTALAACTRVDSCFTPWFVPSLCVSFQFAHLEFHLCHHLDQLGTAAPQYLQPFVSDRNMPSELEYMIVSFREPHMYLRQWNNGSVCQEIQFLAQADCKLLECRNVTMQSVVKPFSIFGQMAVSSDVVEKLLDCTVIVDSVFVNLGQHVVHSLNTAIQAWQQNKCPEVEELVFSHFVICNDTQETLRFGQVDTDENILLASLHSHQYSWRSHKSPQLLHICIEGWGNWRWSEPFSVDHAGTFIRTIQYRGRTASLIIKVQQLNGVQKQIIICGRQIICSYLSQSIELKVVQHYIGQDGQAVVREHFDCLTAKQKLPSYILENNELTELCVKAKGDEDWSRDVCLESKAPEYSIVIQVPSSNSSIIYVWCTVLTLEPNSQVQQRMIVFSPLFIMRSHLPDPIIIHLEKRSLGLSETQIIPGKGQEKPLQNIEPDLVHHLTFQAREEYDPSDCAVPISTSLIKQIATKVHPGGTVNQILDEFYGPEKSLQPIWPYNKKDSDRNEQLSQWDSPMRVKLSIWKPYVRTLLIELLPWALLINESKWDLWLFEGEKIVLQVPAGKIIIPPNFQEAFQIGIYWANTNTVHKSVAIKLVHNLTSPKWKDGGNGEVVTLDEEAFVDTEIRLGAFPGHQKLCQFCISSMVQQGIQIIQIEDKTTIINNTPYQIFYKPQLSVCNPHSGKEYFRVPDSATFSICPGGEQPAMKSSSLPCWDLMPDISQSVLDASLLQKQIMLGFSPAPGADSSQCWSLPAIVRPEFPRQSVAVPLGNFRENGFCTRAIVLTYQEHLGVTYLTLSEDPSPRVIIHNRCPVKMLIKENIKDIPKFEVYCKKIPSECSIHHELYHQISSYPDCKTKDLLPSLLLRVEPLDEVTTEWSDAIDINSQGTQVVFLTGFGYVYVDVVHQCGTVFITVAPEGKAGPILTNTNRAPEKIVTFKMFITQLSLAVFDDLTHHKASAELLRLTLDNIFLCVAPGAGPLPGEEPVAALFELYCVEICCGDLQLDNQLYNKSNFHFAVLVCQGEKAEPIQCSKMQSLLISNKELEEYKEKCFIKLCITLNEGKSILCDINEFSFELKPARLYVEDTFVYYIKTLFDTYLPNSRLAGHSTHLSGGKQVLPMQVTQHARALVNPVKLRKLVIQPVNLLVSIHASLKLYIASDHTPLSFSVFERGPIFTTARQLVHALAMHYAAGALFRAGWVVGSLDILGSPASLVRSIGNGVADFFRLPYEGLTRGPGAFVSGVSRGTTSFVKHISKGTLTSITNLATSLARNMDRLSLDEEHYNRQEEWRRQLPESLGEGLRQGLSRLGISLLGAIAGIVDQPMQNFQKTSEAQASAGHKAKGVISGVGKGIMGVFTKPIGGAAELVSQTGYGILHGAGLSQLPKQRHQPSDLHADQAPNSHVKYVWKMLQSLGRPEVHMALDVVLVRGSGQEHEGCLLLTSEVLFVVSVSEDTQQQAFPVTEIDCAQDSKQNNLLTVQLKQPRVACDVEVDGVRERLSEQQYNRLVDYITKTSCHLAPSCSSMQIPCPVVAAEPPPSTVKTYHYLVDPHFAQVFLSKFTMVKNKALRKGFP
UniProt Q96JC1: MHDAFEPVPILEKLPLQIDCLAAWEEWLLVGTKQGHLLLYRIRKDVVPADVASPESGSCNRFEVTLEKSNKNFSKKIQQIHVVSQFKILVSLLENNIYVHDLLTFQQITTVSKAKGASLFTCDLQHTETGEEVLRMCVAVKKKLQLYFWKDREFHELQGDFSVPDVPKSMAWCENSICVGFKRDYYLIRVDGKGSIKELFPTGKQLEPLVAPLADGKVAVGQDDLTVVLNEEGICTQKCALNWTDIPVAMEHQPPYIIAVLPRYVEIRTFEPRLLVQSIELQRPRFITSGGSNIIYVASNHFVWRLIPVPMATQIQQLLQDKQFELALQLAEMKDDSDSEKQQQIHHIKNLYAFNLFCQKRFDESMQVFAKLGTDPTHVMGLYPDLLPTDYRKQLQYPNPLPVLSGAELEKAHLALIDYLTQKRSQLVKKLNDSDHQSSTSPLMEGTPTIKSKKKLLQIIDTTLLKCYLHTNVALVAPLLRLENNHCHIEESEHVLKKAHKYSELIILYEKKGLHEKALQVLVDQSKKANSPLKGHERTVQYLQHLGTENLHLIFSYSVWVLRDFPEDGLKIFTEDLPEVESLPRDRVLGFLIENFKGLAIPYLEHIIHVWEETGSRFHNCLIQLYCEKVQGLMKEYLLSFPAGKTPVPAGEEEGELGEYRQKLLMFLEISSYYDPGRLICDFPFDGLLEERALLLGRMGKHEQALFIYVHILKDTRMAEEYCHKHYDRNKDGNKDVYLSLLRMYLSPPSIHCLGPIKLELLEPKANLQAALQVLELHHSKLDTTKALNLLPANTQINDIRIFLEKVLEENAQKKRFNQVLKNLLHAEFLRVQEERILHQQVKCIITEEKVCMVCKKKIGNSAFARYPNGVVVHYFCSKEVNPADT
UniProt Q8NEZ2: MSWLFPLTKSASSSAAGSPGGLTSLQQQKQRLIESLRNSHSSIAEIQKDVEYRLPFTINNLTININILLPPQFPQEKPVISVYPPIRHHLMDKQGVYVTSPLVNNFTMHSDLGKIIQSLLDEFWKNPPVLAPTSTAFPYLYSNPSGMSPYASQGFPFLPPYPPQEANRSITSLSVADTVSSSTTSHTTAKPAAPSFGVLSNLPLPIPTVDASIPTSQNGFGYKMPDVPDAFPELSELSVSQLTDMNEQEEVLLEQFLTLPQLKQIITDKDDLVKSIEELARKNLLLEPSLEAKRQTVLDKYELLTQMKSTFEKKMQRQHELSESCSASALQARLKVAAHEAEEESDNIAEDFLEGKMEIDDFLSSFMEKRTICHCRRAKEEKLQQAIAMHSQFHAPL

Tests used:
Test in all cases: log2 fold change, soluble protein after heating vs DMSO (PISA); higher = thermal stabilisation; K562 cells, 10 uM, 30 min; active = over 0.2 and 3.5 SD of the protein, either way, in both replicates (recomputed)
[1] = compound: NC(=O)Nc1cc(-c2cccc(F)c2)sc1C(=O)N[C@H]1CCCNC1
Outline: (§1)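 Aliquots of K562 cells (2×10^6 cells/mL) treated with 10 μM compound for 30 min were heated for 3 min over 48°C-58°C. After pooling and extraction in PBS with 0.5% NP-40 at 4°C, soluble protein from a 21,000xg, 90 min spin was quantified by TMTpro 16plex LC-MS/MS with channel sums equalised. Thermal stability is expressed against control samples, from duplicates, as a log2 fold change.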

[2] = compound: NC(=O)c1cnc(N[C@@H]2CCCC[C@@H]2N)nc1Nc1cccc(-n2nccn2)c1
Outline: as §1

[3] = compound: NC1(c2ccc(-c3nc4ccn5c(=O)[nH]nc5c4cc3-c3ccccc3)cc2)CCC1
Outline: as §1

[4] = compound: NCC(=O)Nc1ccc(-n2nc(C(F)(F)F)cc2-c2ccc3c(ccc4ccccc43)c2)cc1
Outline: as §1

entinostat = compound: Nc1ccccc1NC(=O)c1ccc(CNC(=O)OCc2cccnc2)cc1 [entinostat]
Outline: as §1

vorinostat = compound: O=C(CCCCCCC(=O)Nc1ccccc1)NO [vorinostat]
Outline: as §1

citarinostat = compound: O=C(CCCCCCNC(=O)c1cnc(N(c2ccccc2)c2ccccc2Cl)nc1)NO [citarinostat]
Outline: as §1

silmitasertib = compound: O=C(O)c1ccc2c(c1)nc(Nc1cccc(Cl)c1)c1ccncc12 [silmitasertib]
Outline: as §1

[5] = compound: O=C1NC(=O)C(c2cnc3ccccn23)=C1c1cn2c3c(cc(F)cc13)CN(C(=O)N1CCCCC1)CC2
Outline: as §1

[6] = compound: c1cc(OCCN2CCCCC2)cc(-c2n[nH]c3ccc(-c4nnc[nH]4)cc23)c1
Outline: as §1

Measured: log2 fold change

VPS11 (UniProt Q9H270)
inactive: [1] -0.012 | [2] -0.053 | [3] -0.159 | [4] -0.028 | entinostat 0.015 | vorinostat 0.145 | citarinostat 0.065 | silmitasertib 0.025 | [5] 0.024 | [6] 0.084

WRAP53 (UniProt Q9BUR4)
inactive: [1] 0.017 | [2] 0.01 | [3] -0.039 | [4] -0.04 | entinostat -0.05 | vorinostat 0.104 | citarinostat 0.073 | silmitasertib -0.032 | [5] 0.077 | [6] -0.084

WARS (UniProt P23381)
inactive: [1] 0.073 | [2] 0.014 | [3] 0.097 | [4] 0.058 | entinostat -0.025 | vorinostat -0.024 | citarinostat -0.014 | silmitasertib -0.048 | [5] -0.012 | [6] 0.029

WDR37 isoform 2 (UniProt Q9Y2I8)
inactive: [1] -0.041 | [2] -0.01 | [3] -0.052 | [4] -0.08 | entinostat -0.004 | vorinostat -0.068 | citarinostat -0.012 | silmitasertib -0.059 | [5] 0.032 | [6] -0.162

WIZ (UniProt O95785)
inactive: [1] 0.043 | [2] -0.043 | [3] 0.032 | [4] -0.012 | entinostat 0.019 | vorinostat 0.085 | citarinostat 0.036 | silmitasertib -0.045 | [5] 0.04 | [6] -0.071

VEZF1 (UniProt Q14119)
inactive: [1] 0.032 | [2] -0.006 | [3] 0.143 | [4] -0.028 | entinostat -0.139 | vorinostat 0.009 | citarinostat -0.196 | silmitasertib 0.117 | [5] 0.195 | [6] -0.111

WDR4 (UniProt P57081)
inactive: [1] -0.094 | [2] 0.021 | [3] -0.089 | [4] -0.003 | entinostat -0.04 | vorinostat -0.009 | citarinostat 0.046 | silmitasertib -0.038 | [5] -0.161 | [6] -0.011

VPS53 isoform 4 (UniProt Q5VIR6)
inactive: [1] -0.036 | [2] -0.062 | [3] -0.105 | [4] -0.021 | entinostat 0.052 | vorinostat 0.018 | citarinostat 0.025 | silmitasertib 0.063 | [5] -0.066 | [6] -0.02

WBP2 (UniProt Q969T9)
inactive: [1] 0.01 | [2] 0.073 | [3] -0.032 | [4] 0.012 | entinostat -0.009 | vorinostat -0.035 | citarinostat 0.036 | silmitasertib -0.026 | [5] 0.034 | [6] -0.063

VWA8 (UniProt A3KMH1)
inactive: [1] -0.017 | [2] -0.024 | [3] -0.135 | [4] -0.016 | entinostat 0.008 | vorinostat 0.096 | citarinostat 0.048 | silmitasertib -0.046 | [5] -0.071 | [6] -0.039

VIPAS39 (UniProt Q9H9C1)
inactive: [1] -0.41 | [2] -0.089 | [3] -0.567 | [4] 0.001 | entinostat 0.191 | silmitasertib -0.354

VPS13B (UniProt Q7Z7G8)
inactive: [1] -0.064 | [2] -0.033 | [3] -0.069 | [4] -0.039 | entinostat -0.033 | vorinostat 0.041 | citarinostat 0.018 | silmitasertib 0.038 | [5] -0.043 | [6] -0.03

VPS39 (UniProt Q96JC1)
inactive: [1] 0.026 | [2] -0.119 | [3] -0.195 | [4] -0.039 | entinostat 0.05 | vorinostat 0.101 | citarinostat 0.01 | silmitasertib -0.004 | [5] 0.055 | [6] -0.042

VGLL4 isoform 4 (UniProt Q14135)
inactive: [1] 0.048 | [2] -0.103 | [3] 0.056 | [4] 0.02 | entinostat -0.063 | vorinostat 0.084 | silmitasertib 0.03 | [5] -0.049

WTAP (UniProt Q15007)
inactive: [1] 0.03 | [2] -0.04 | [4] 0.069 | entinostat 0 | citarinostat 0.174 | [6] -0.142

VTN (UniProt P04004)
inactive: [1] -0.117 | [2] -0.015 | [3] 0.083 | [4] -0.103 | entinostat -0.063 | citarinostat -0.056 | silmitasertib 0.185 | [5] 0.227 | [6] 0.019

WDR1 (UniProt O75083)
inactive: [1] -0.043 | [2] -0.043 | [3] -0.128 | [4] -0.048 | entinostat 0.011 | vorinostat 0.006 | citarinostat 0.039 | silmitasertib -0.027 | [5] -0.064 | [6] -0.029

VDAC1 (UniProt C9JI87)
inactive: [1] -0.145 | [2] -0.166 | [3] -0.065 | entinostat -0.158 | citarinostat -0.153 | silmitasertib 0.024 | [5] -0.09 | [6] 0.044

WDR81 (UniProt Q562E7)
inactive: [1] -0.161 | [2] -0.14 | entinostat 0.022 | [5] 0.013

VSIR (UniProt Q9H7M9)
inactive: [1] 0.002 | [3] -0.011 | [4] 0.027 | entinostat -0.05 | vorinostat -0.097 | citarinostat 0.029 | silmitasertib -0.053 | [5] 0.022 | [6] 0.013

VKORC1 (UniProt Q9BQB6)
inactive: [1] -0.006 | [2] 0 | [3] -0.054 | [4] -0.114 | entinostat 0.025 | vorinostat -0.034 | citarinostat 0.001 | silmitasertib -0.023 | [6] 0.073

WRAP73 (UniProt Q9P2S5)
inactive: [1] 0.1 | [2] 0.042 | [3] 0.032 | [4] 0.022 | entinostat 0.033 | vorinostat -0.036 | citarinostat 0.012 | silmitasertib -0.025 | [5] -0.008 | [6] -0.038

VPS37A (UniProt Q8NEZ2)
inactive: [1] -0.066 | [2] -0.021 | [3] -0.317 | [4] -0.051 | entinostat 0.121 | vorinostat 0.113 | silmitasertib 0.02 | [5] -0.198

WDR70 (UniProt Q9NW82)
inactive: [1] 0.003 | [2] 0.002 | [3] -0.042 | [4] -0.01 | entinostat -0.017 | vorinostat -0.024 | citarinostat 0.034 | silmitasertib -0.003 | [5] -0.026 | [6] 0.002

WDR33 (UniProt Q9C0J8)
inactive: [1] -0.072 | [2] -0.212 | [3] -0.01 | [4] -0.006 | entinostat -0.019 | citarinostat -0.027 | silmitasertib 0.006 | [5] 0.278 | [6] -0.12

VEZT (UniProt Q9HBM0)
inactive: [1] -0.045 | [2] -0.069 | [3] -0.072 | [4] -0.015 | entinostat 0.112 | vorinostat -0.234 | silmitasertib -0.019 | [5] 0.038

2 entries picked at random from those above:
VPS37A (UniProt Q8NEZ2)
inactive: [1] -0.066 | [2] -0.021 | [3] -0.317 | [4] -0.051 | entinostat 0.121 | vorinostat 0.113 | silmitasertib 0.02 | [5] -0.198

VEZT (UniProt Q9HBM0)
inactive: [1] -0.045 | [2] -0.069 | [3] -0.072 | [4] -0.015 | entinostat 0.112 | vorinostat -0.234 | silmitasertib -0.019 | [5] 0.038

More entries.

WDR53 (UniProt Q7Z5U6)
inactive: [1] -0.194 | [2] 0.002 | [3] -0.057 | [4] -0.058 | entinostat 0.097 | vorinostat 0.019 | citarinostat 0.072 | silmitasertib -0.036 | [6] 0.039

WIPI1 (UniProt Q5MNZ9)
inactive: [1] 0.057 | [2] -0.064 | [3] -0.138 | entinostat 0.019 | vorinostat -0.07 | citarinostat 0.118 | silmitasertib -0.052 | [5] 0.002 | [6] 0.023

VWA5A (UniProt O00534)
inactive: [1] -0.022 | [2] -0.016 | [3] -0.038 | [4] -0.084 | entinostat 0.088 | vorinostat 0.065 | citarinostat -0.089 | silmitasertib -0.009 | [5] 0.014 | [6] 0.169

WIPF1 isoform 3 (UniProt O43516)
inactive: [1] 0.016 | [2] 0.06 | [3] -0.016 | [4] 0.013 | entinostat 0.023 | vorinostat 0.166 | citarinostat 0.087 | silmitasertib -0.026 | [6] 0.075
